Data published in paper PMC8204342, “Dual arginine recognition of LRRK2 phosphorylated Rab GTPases” (Biophysical Journal, 2021).
Positions count from the first letter of the chain named. These are yes or no findings as the source states them, for the method shown. Binding seen in cells or lysates may run through a third protein. Some entries that bind do so weakly or less than the wild type. Sequences can lack the tags named with a protein.

Amino acid sequences for entries named in this document (tags omitted). A change or cut given only in a name is not applied to a line headed by its entry.
UniProt P61006: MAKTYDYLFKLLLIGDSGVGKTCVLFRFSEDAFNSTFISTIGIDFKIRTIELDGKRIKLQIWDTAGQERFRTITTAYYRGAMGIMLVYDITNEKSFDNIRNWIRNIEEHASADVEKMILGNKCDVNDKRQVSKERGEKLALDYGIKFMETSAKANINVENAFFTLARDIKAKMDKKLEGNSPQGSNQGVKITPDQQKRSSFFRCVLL

Tests used:
Assay in all cases: co-IP; HEK293 cells transfected with Flag-LRRK2 Y1699C, HA-Rab8a and RILPL2-GFP; +/- 500 nM MLi-2 for 90 min; RILPL2-GFP precipitated with GFP binder Sepharose, immunoblot
[1] = target: T1, RILPL2-GFP D127N, full length (human) (UniProt Q969X0)
T1 sequence: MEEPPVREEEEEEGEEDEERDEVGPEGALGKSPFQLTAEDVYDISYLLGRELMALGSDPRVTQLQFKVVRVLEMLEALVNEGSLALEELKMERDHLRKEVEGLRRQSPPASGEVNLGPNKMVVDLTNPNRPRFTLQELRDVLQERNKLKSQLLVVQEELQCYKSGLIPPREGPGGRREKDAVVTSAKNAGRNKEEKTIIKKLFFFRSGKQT

[2] = target: T2, RILPL2-GFP WT, full length (human) (UniProt Q969X0)
T2 sequence: T1 sequence with N127D

[3] = target: T3, RILPL2-GFP D127A, full length (human) (UniProt Q969X0)
T3 sequence: T1 sequence with N127A

[4] = target: T4, RILPL2-GFP D124A, full length (human) (UniProt Q969X0)
T4 sequence: T1 sequence with D124A, N127D

Measured: binding

HA-Rab8a WT phosphorylated at T72 in HEK293 cells co-expressing Flag-LRRK2 Y1699C (from UniProt P61006 1-207)
binds: all assays above
